# Hit rate of the full screen: of about 1,200 compounds, fewer than 10 were called active. Calls follow the shape of the dose curve; as a rule, active = well fitted curve in the direction sought with a large enough effect; inconclusive = small, poorly fitted or top-dose-only effect, or another doubt; inactive = no such curve, though single readings can be large or run the other way. The list shows a part of the results.
# Test: Confirmatory qHTS assay for inhibitors of Activation Induced Cytidine Deaminase (AID): UDG signals; also: 0% is about no effect
# Details: UDG coupled enzyme activity counter-screen; at 115 µM (top of the series) unless noted
# In short: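 UDG readout, a counterscreen: AID (1 uM, 4/3x) plus UDG (2 U/mL, 4/3x) preincubated 10 min with compound (7.32 nM - 114 uM final), then 4 h with DJC20/DJC23 substrates at room temperature; NaOH added, fluorescence read at 560/665 nm.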
row,Structure (SMILES),"activity change, negative = inhibition"
1,O=C(NCCn1cc(SCc2cccc(F)c2)c2ccccc21)c1cccc(C(F)(F)F)c1,inactive: -8.72%
2,Cc1ccc(N(Cc2cccs2)C(=O)c2ccccc2)cc1,inactive: -1.63%
3,Cc1cccc(Cn2c(SCc3ccc(C(=O)N4CCC(C)CC4)cc3)nc3ccncc32)c1,inactive: -6.12%
4,COc1cccc(CNC(=O)c2oc3ccc4c(c3c2C)C(=O)CC(C)(C)O4)c1OC,inactive: 0.26%
5,CCOc1ccc(-c2nn(-c3ccccc3)cc2C2NC(=O)NC(C)=C2C(=O)OC(C)C)cc1C (stereo unspecified),inactive: -9.9%
6,COc1ccc(NC(=O)C(c2ccc(C)cc2)N(C)C(=O)Cc2cccs2)cc1 (stereo unspecified),inactive: -6.34%
7,CC(C)c1ccc(S(=O)(=O)c2cnc(SCC(=O)Nc3cccc(C(F)(F)F)c3)nc2N)cc1,inactive: -15.2%
8,CCOc1ccc(NC(=O)CSc2nccn2-c2cccc(C)c2C)cc1,inactive: -4.02%
9,Cc1ccc(Nc2nnc(-c3ccc(C)c(S(=O)(=O)N4CCN(C)CC4)c3)c3ccccc23)c(C)c1,inactive: -0.466%
10,Cc1ccc2nc(Cl)c3cc(C(=O)N4CCCC(C)C4)sc3c2c1 (stereo unspecified),inactive: 4.71%
11,COc1cccc(CNC(=O)c2ccc3c(Cl)c4c(nc3c2)CCCC4)c1,inactive: -1.88%
12,Cc1cccc(N2CCN(C(=O)C3CCCN(C(=O)c4cc5sccc5n4C)C3)CC2)c1C (stereo unspecified),inactive: -8.06%
13,CCC1CCCCN1C(=O)CSc1nc(-c2ccc(OC)cc2)cc(C(F)(F)F)n1 (stereo unspecified),inactive: -16.9%
14,Cc1cc2c(cc3c(SCc4ccc(Cl)cc4)nnc(C)n32)o1,inactive: -0.784%
15,CN(C(=O)c1ccc2c(c1)N(Cc1ccccc1F)C(=O)c1ccccc1S2)C1CCCCC1,inactive: -1.84%
16,CCc1ccc(OCC(=O)N(Cc2ccco2)Cc2ccco2)cc1,inactive: -2.86%
17,Cc1ccc(C)c(CN2CCCN(Cc3cc(C)ccc3C)S2(=O)=O)c1,inactive: -1.61%
18,CCc1ccc(NC(=O)CSc2nc(-c3ccccc3)c(C#N)c(=O)[nH]2)cc1,inactive: 7.28%
19,CC(C)c1ccc2c(c1)-c1ccccc1S(=O)(=O)N2CC(=O)N1CCCCC1,inactive: -4.79%
20,Cc1c(Cl)cccc1-n1ncc(C(=O)NCc2cccs2)c1C1CCN(C(=O)OC(C)(C)C)CC1,inactive: -10.8%
21,Cc1cccc(-c2nc(CSCC(=O)NCCc3ccc(Cl)cc3)c(C)o2)c1,inactive: -5.42%
22,COc1ccc(-n2c(-c3ccc(C)cc3)cc3c2CC(C)(C)CC3=O)c(OC)c1,inactive: -11%
23,CCn1cc2nc(SCc3cccc(C(F)(F)F)c3)n(Cc3ccc(Cl)cc3)c(=O)c2n1,inactive: -9.07%
24,Cc1ccc(C)c(N2CCN(C(=O)c3cnn(C(C)(C)C)c3C3CCN(C(=O)OC(C)(C)C)CC3)CC2)c1,inactive: -6.07%

# 2 compounds picked at random from the list so far, as already listed:
row,Structure (SMILES),"activity change, negative = inhibition"
19,CC(C)c1ccc2c(c1)-c1ccccc1S(=O)(=O)N2CC(=O)N1CCCCC1,inactive: -4.79%
10,Cc1ccc2nc(Cl)c3cc(C(=O)N4CCCC(C)C4)sc3c2c1 (stereo unspecified),inactive: 4.71%

# Some values from the results shown:
# Entry of Cc1cccc(-c2nc(CSCC(=O)NCCc3ccc(Cl)cc3)c(C)o2)c1 under activity change, negative = inhibition: inactive: -5.42%
# Entry of Cc1ccc(N(Cc2cccs2)C(=O)c2ccccc2)cc1 under activity change, negative = inhibition: inactive: -1.63%

# Carrying on.

row,Structure (SMILES),"activity change, negative = inhibition"
1,CCOc1cccc2sc(N3CCN(C(=O)c4ccc5c(c4)CCCC5)CC3)nc12,inactive: -12.5%
2,CCN(CC)C(=O)c1ccc2c(c1)N(Cc1c(F)cccc1Cl)C(=O)c1ccccc1S2,inactive: 0.172%
3,COc1cccc(Cc2nc3ccccc3nc2SCC(=O)N2CCCCC2C)c1 (stereo unspecified),inactive: -2.1%
4,O=C(O)c1c(-c2ccccc2)oc2ccc(OCc3c(F)cccc3Cl)cc12,inactive: -5.79%
5,COc1ccc(C(=O)N2CCc3cc(OC)c(OC)cc3C2COc2ccccc2OC)cc1 (stereo unspecified),inactive: -10.4%
6,CCN(CC)C(=O)CSc1nc(-c2ccc(C)cc2)nc2c1Cc1c(CO)cnc(C)c1O2,inactive: 4.35%
7,Cc1ccc(CN(Cc2ccco2)C(=O)COc2ccc(C)c(C)c2)cc1,inactive: -3.6%
8,Cc1ccc(NC(=O)c2ccc3c(O)c(S(=O)(=O)c4ccccc4)c(=O)[nH]c3c2)cc1Cl,inactive: 5.47%
9,CN(C)c1ccc(Nc2ncnc3sc4c(c23)CCCC4)cc1,inactive: 0.0322%
10,Cc1ccc2[nH]c(=O)c3cc(C(=O)NCCCN4CCC(C)CC4)sc3c2c1,inactive: -6.06%
11,Cc1ccc(C)c(CSc2nnc(C)n3c2cc2sccc23)c1,inactive: -4.76%
12,Cc1ccc(C)c(N2CCN(CCCNC(=O)c3cnn(-c4ccc(F)cc4)c3C3CCN(C(=O)OC(C)(C)C)CC3)CC2)c1,inactive: -1.84%
13,OCC1O[C@H]([S-])[C@H](O)[C@@H](O)[C@@H]1O.[Au+] (stereo partly specified),inactive: 3.35%
14,COc1ccccc1CNC(=O)C(C)n1c(=O)cc(-c2ccccc2)c2c(C)nn(C)c21 (stereo unspecified),inactive: -9.61%
15,CCOC(=O)c1cccc(NC(=O)c2oc3c(c2C)-c2nn(CC)cc2CC3)c1,inactive: -7.26%
16,Cc1c(Cl)cccc1-n1ncc(C(=O)NC2CCCCC2)c1C1CCN(C(=O)OC(C)(C)C)CC1,inactive: 11.2%
17,COc1ccc(OC)c(Nc2sc(C(=O)c3ccccc3)c(N)c2S(=O)(=O)c2ccccc2)c1,inactive: -9.69%
18,CC(C)NC[C@H](O)c1ccc(O)c(O)c1,inactive: -5.78%
19,Cc1cc(C)cc(C(=O)NCCc2sc(-c3ccc(F)cc3)nc2C)c1,inactive: -6.85%
20,CCCCN(CC)CCCNC(=O)c1cn(CC)c2ccc(S(=O)(=O)N3CCc4ccccc4C3)cc2c1=O,inactive: -12.6%
21,Cc1cccc(OCCCn2c(CCNC(=O)C3CCCCC3)nc3ccccc32)c1,inactive: -11.7%
22,CS(=O)(=O)N(Cc1ccccc1)c1ccc(C(=O)Nc2ccc(Cl)cc2)cc1,inactive: 2.66%
23,Cc1cccc(Nc2nnc(-c3ccc(C)c(S(=O)(=O)N4CCN(C)CC4)c3)c3ccccc23)c1,inactive: -2.91%
24,CCOC(=O)c1cnc2c(ccc3ccccc32)c1Nc1ccc(N(C)C)cc1,inactive: -13.6%

row,Structure (SMILES),"activity change, negative = inhibition"
1,CCn1cc2c(n1)-c1c(oc(C(=O)Nc3ccc(Br)cc3F)c1C)CC2,inactive: -15.5%
2,Cc1ccc(N(CC(=O)N2CCN(c3cc(C)ccc3C)CC2)S(=O)(=O)c2c(C)nn(C)c2C)cc1,inactive: -16.1%
3,Cc1ccc(N(C)C(=O)c2sc3nc4n(c(=O)c3c2C)CCCC4)cc1C,inactive: -1.73%
4,CCCCN(CC)C(=O)CSc1nc2n[nH]c(C)c2c(=N)n1-c1ccc(CC)cc1,inactive: -6.73%
5,CCOc1ccc(CNC(=O)c2oc3c(c2C)-c2nn(Cc4cccc(Cl)c4)cc2CC3)cc1,inactive: -11.6%
6,O=C(c1ccc2c(c1)N(Cc1ccc(Cl)cc1)C(=O)c1ccccc1S2(=O)=O)N1CCCC1,inactive: -2.92%
7,COc1ccc(-c2nn3c(-c4ccccc4C)nnc3c3ccccc23)cc1,inactive: -9.22%
8,CCN(CC)CCNC(=O)c1ccc2c(=O)n3nc(Nc4ccccc4OC)sc3nc2c1,inactive: 7.61%
9,COc1ccc(NC(=O)CSc2nc3nc(C)c(Cc4ccccc4)c(C)n3n2)cc1OC,inactive: -11.5%
10,Cc1ccc(CN(Cc2ccco2)C(=O)c2ccc(OCC(C)C)cc2)cc1,inactive: 0.221%
11,Cc1ccccc1OCC(=O)Nc1cccc(C(=O)OCc2cc(=O)n3c(C)csc3n2)c1,inactive: 1.99%
12,Cc1ccc(S(=O)(=O)Cc2ccc(C(=O)N3CCN(c4cccc(Cl)c4)CC3)o2)cc1,inactive: -15.2%
13,CCCn1c2ccccc2c2nnc(SCC(=O)Nc3cccc(C(C)=O)c3)nc21,inactive: 3.62%
14,CCOc1ccc(-c2nn(-c3ccccc3)cc2C2NC(=O)NC(C)=C2C(=O)OC(C)C)cc1 (stereo unspecified),inactive: -7.59%
15,CSc1nc(Nc2ccc(F)cc2)cc(-c2ccccc2)n1,inactive: -6.66%
16,Cc1ccc(CNC(=O)Nc2cc(C(=O)NCc3ccc(C(C)C)cc3)ccc2N2CCCC2)cc1,inactive: -1.44%
17,Cc1ccc2cccc(NC(=O)c3ccc(OC(C)C)cc3)c2n1,inactive: -2.17%
18,CCC(=O)Oc1c(Sc2ccc(Cl)cc2)c(C)nn1-c1ccccc1,inactive: 15.4%
19,COC(=O)c1ccc(CSc2nnc3ccc4ccccc4n23)cc1,inactive: 1.41%
20,COc1ccc2c(c1)Cc1sc(NC(=O)c3cccc(C)c3)nc1-2,inactive: -1.75%
21,CCOC(=O)CSc1nnc2n(-c3ccccc3)c(=O)c3c4c(sc3n12)CC(C(C)(C)C)CC4 (stereo unspecified),inactive: 3.24%
22,CC(=O)NCCNc1nc2c(S(=O)(=O)c3ccc(C)c(C)c3)nnn2c2ccc(Cl)cc12,inactive: -4.07%
23,Cc1ccc(C(C)C)c(OCC(=O)N2CCC(c3nc4ccccc4o3)CC2)c1,inactive: -1.67%
24,Cc1nn2c(=O)cc(COC(=O)c3ccc(NC(=O)C4CCCCC4)cc3)nc2s1,inactive: 4.13%

row,Structure (SMILES),"activity change, negative = inhibition"
1,Cc1sc2ncn(CC(=O)N3CCN(c4ccc(F)cc4)CC3)c(=O)c2c1S(=O)(=O)N1CCC(C)CC1,inactive: -8.24%
2,CCOc1ccccc1NC(=O)CN1C(=O)CC(c2ccc(OC)c(OC)c2)Sc2ccccc21 (stereo unspecified),inactive: -2.93%
3,CCN1C(=O)c2ccccc2S(=O)c2ccc(C(=O)N3CCN(c4cccc(C)c4)C(C)C3)cc21 (stereo unspecified),inactive: -10.4%
4,CCc1ccc(CN2CCc3nc(Nc4ccccc4)ncc3C2)cc1,inactive: -2.24%
5,CCc1ccccc1Nc1nn2c(=O)c3ccc(C(=O)NC(C)c4ccccc4)cc3nc2s1 (stereo unspecified),inactive: -6.22%
6,COc1ccc(-n2nc3c(N4CCCC(C(=O)NCc5ccc(C)cc5)C4)nnc(C)c3c2C)cc1 (stereo unspecified),inactive: -3.07%
7,CCCNC(=O)c1cnn2c(C)c(Cc3c(C)cc(C)cc3C)c(C)nc12,inactive: -0.105%
8,CCc1nn(CCCC(=O)N2CCN(c3cc(Cl)ccc3C)CC2)c(=O)c2cc3occc3n12,inactive: -7.4%
9,CCCN1CCN(CCCNC(=O)c2cc3c(Cl)nc4ccccc4c3s2)CC1,inactive: 12.3%
10,CCCCC1CCC(C(=O)N2CC(=O)Nc3ccc(F)cc3C2c2ccc(F)cc2)CC1 (stereo unspecified),inactive: 1.26%
11,CCc1ccc(NC(=O)c2cnn(-c3c(C)cccc3C)c2C2CCN(C(=O)OC(C)(C)C)CC2)cc1,inactive: -11.8%
12,CN1CCN(c2nc3c(S(=O)(=O)c4ccc(Cl)cc4)nnn3c3ccsc23)CC1,inactive: -6.47%
13,Cc1cc2oc(=O)c(CC(=O)O)c(C)c2c2occ(-c3ccccc3)c12,inactive: 2.29%
14,Cc1nn2c(C)c(C(=O)NCCc3ccccc3)cnc2c1-c1ccccc1,inactive: -20.1%
15,COc1cc(C(c2c(C)[nH][nH]c2=O)c2c(C)[nH][nH]c2=O)ccc1OC(=O)c1ccccc1OC,inactive: -5.55%
16,CC(C)(C)OC(=O)N1CCC(c2c(C(=O)N3CCN(Cc4ccccc4)CC3)cnn2-c2cccc(Cl)c2)CC1,inactive: -11.8%
17,COc1ccc(-c2nc(Cn3c(SCc4ccccc4F)nc4cccnc43)c(C)o2)cc1,inactive: -15%
18,CCn1cc(S(=O)(=O)c2ccc(Cl)cc2)c(=O)c2cc(F)c(N3CCOCC3)cc21,inactive: 8.08%
19,COc1ccc(NC(=O)CSc2nc3nc(C)c(Cc4ccc(C)cc4)c(C)n3n2)cc1OC,inactive: -9.19%
20,CCc1ccc(OCCCSc2nc(-c3ccc(C(C)(C)C)cc3)nc3cc(=O)[nH]n23)cc1,inactive: -5.76%
21,Cc1ccc(-c2cn3c(n2)sc2cc(C(=O)NCCCN4CCCCC4)ccc23)cc1,inactive: -2.1%
22,CC(C)Cc1ccc(S(=O)(=O)N2CCC(c3ccncc3)CC2)cc1,inactive: -3.44%
23,CCCN(Cc1cccs1)C(=O)Nc1cc(Cl)ccc1C,inactive: -4.21%
24,COc1cc2c(=O)c(C(=O)c3ccc(C)c(C)c3)cn(Cc3ccccc3F)c2cc1OC,inactive: -2.14%

# — PubChem BioAssay AID1347431 (National Center for Advancing Translational Sciences (NCATS), 2020)
